# From PubChem BioAssay AID652054 (National Center for Advancing Translational Sciences (NCATS), 2013)
# Amino acid sequences for entries named in this document (tags omitted).
# UniProt P35462, whole entry, looked up: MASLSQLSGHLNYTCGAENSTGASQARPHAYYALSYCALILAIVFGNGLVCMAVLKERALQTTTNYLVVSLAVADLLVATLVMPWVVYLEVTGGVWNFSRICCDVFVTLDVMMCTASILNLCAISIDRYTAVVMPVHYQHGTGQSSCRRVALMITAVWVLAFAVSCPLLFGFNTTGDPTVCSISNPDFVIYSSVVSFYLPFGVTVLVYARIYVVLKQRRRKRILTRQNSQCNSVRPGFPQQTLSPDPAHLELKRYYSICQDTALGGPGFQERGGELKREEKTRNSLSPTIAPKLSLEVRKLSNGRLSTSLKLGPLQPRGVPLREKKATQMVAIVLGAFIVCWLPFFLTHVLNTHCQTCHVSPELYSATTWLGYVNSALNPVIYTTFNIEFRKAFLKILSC
# The whole screen tested about 360,000 compounds, of which about 9,100 (2.5%) were called active. The shares of active, inactive and inconclusive entries below differ from those in the screen. Rule as the data show it: active = max response below about -50%; inconclusive = no clear call, values can overlap the other calls; inactive = above that.
# Target: D(3) dopamine receptor (Homo sapiens) (UniProt P35462)
# Experiment: qHTS of D3 Dopamine Receptor Antagonist: qHTS
# Settings: D3R cells, DiscoveRx beta-arrestin luminescence, antagonist mode; stronger effect = lower value
# Procedure, shortened: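 Cells expressing the human receptor were seeded at 1500 cells/well, incubated overnight at 37 degrees C in 5% CO2, then exposed to library compounds with dopamine controls for 90 minutes at 37 degrees C before luminescent detection.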
# % is scaled to controls: 0 for no effect and ±100 for the full control effect.
row,Compound,"max response, negative = inhibition"
1,N=c1ccn(CC(=O)c2ccc(-c3ccccc3)cc2)cc1,inactive: -17.7%
2,CCCCc1cc(=O)oc2cc(OCC(=O)NC3CCN(Cc4ccccc4)CC3)ccc12,active: -53.7%
3,COc1ccc(C[C@H]2CN3C(=NC[C@@H]3Cc3ccccc3)N2CCNC(=O)CCC2CCCCC2)cc1,active: -61.8%
4,Cn1c(=O)[nH]c(=O)c2c1nc([N+](=O)[O-])n2Cc1ccccc1,active: -81.7%
5,CC(C)C(=O)N[C@@H]1c2ccccc2CC[C@H]1OCc1ccccc1,inconclusive: -50%
6,Cc1ccccc1-c1nnc(SCc2ccccc2)o1,inactive: -6%
7,Cc1cc(=O)n2nc(N3CCCC(C(=O)NCCCN4CCc5ccccc5C4)C3)sc2n1 (configuration not stated),active: -86.3%
8,CC(C)C[C@@H](CNCC(=O)[C@H](Cc1ccccc1)NC(=O)c1[nH]cnc1C(=O)N[C@@H](C)CN)NC(=O)c1nc[nH]c1C(=O)N[C@@H](C)C(=O)O,inconclusive: -44.9%
9,CCN1CCCC1CNCc1ccccc1OCc1ccc(F)cc1 (configuration not stated),inconclusive: -32.7%
10,COc1cccc(NC(=S)N(CCCN2CCCC(C)C2)Cc2cccs2)c1 (configuration not stated),active: -80.2%
11,O=C(NC(=S)Nc1ccccc1[N+](=O)[O-])c1cncc(Br)c1,inconclusive: -32.9%
12,COc1ccc(NC(=O)CNC(=O)C23CC4CC(CC(C4)C2)C3)c(OC)c1,inactive: 8.68%
13,CCC(c1nnnn1C(C)(C)CC)N1CCN(c2ccccc2F)CC1 (configuration not stated),inactive: -0.599%
14,C=CCOc1ccc(CN(C)c2ccc(S(=O)(=O)N3CCN(C)CC3)cc2[N+](=O)[O-])cc1,inconclusive: -38.7%
15,Cc1cnc(NC(=O)CSc2nnc(Cc3ccccc3)o2)s1,inconclusive: -31.7%
16,Cc1ccc2c(c1)C1CN(C)CCC1N2S(=O)(=O)c1cccc(F)c1 (configuration not stated),active: -54.7%
17,CC(C)CC1c2[nH]c3ccccc3c2CCN1CCCn1cccn1 (configuration not stated),inactive: -9.19%
18,COc1cccc(-n2c(=O)n(Cc3ccccc3)c(=O)c3[nH]cnc32)c1,inconclusive: -39.4%
19,Cc1ccc(CSc2nnc(-c3ccc(NS(=O)(=O)c4ccccc4)cc3)o2)cc1,inactive: -8.19%
20,CC(=O)c1cccc(NC(=O)C2CC(=O)N(c3cccc(C)c3C)C2)c1 (configuration not stated),inconclusive: -34.3%
21,Cc1csc(SCC(=O)N(C)CC(=O)Nc2ccccc2Cl)n1,inactive: -6.13%
22,O=C(OCC(=O)c1ccc(S(=O)(=O)N2CCCC2)cc1)C1=COCCO1,inconclusive: -30.9%

# No new results follow: 3 of the compounds above.
row,Compound,"max response, negative = inhibition"
3,COc1ccc(C[C@H]2CN3C(=NC[C@@H]3Cc3ccccc3)N2CCNC(=O)CCC2CCCCC2)cc1,active: -61.8%
4,Cn1c(=O)[nH]c(=O)c2c1nc([N+](=O)[O-])n2Cc1ccccc1,active: -81.7%
5,CC(C)C(=O)N[C@@H]1c2ccccc2CC[C@H]1OCc1ccccc1,inconclusive: -50%

# Following part:

row,Compound,"max response, negative = inhibition"
1,CCCc1nnc(SCC(=O)N2CCOCC2)n1CCCOC,inconclusive: -31%
2,COc1cc(CN2CCN(c3cccc(C)c3C)CC2)cc(Br)c1O,inconclusive: -46.5%
3,O=[N+]([O-])c1ccc(OCCCCCN2CCOCC2)cc1,inactive: -23.2%
4,COc1ccccc1N1CCN(CCN2C(=O)CC(=C3c4ccccc4-c4ccccc43)C2=O)CC1,active: -75.5%
5,CCOC(=O)Nc1ccc(NCc2ccc(F)cc2)nc1N,inactive: -6.33%
6,O=C(NCCCN1CCOCC1)c1cccc(S(=O)(=O)N2CCN(c3ccccc3)CC2)c1,inactive: -24.1%
7,CCOc1ccccc1N1CCN(Cc2cc3c(cc2[N+](=O)[O-])OCO3)CC1,inconclusive: -43.3%
8,CCCN1CCN(CCCNC(=O)CN2C(=O)COc3ccc(C(C)(C)C)cc32)CC1,inconclusive: -46.2%
9,CC(=O)OC1CCC2(C)C(CCC3C4CC=C(C(C)=O)C4(C)OC(=O)CC32)C1 (configuration not stated),active: -93.5%
10,CN(C)/N=C1\C(=O)N(CN2CCN(c3ccccc3)CC2)c2ccccc21,inconclusive: -33.3%
11,Cn1c(SCC(=O)NCc2cccs2)nnc1-c1ccc(S(=O)(=O)N2CCCC2)cc1,inactive: -22.6%
12,CC1(NC(=O)CC(c2ccccc2)(c2ccccc2)c2ccccc2)CCN(Cc2ccc(-c3ccccc3)cc2)C1=O (configuration not stated),inactive: -16.2%
13,COC(=O)C1=C(C)N(C)C(=O)/C1=C\c1ccco1,inconclusive: -31.1%
14,CCOc1ccccc1NC(=O)c1ccc(Cl)c(NC(=O)CC(c2ccccc2)c2ccccc2)c1,inconclusive: -32.6%
15,Cc1cccc2cc(C#N)c(SCC(=O)N3CC(=O)Nc4ccccc43)nc12,inconclusive: -45%
16,O=C(CN1C2=NCCCN2c2ccccc21)c1cccc(Br)c1,inconclusive: -37.9%
17,C=CCn1c(-c2cccc(Cl)c2)n[nH]c1=S,active: -56.8%
18,CCOC(=O)CSc1nc2ccccc2n2cnnc12,active: -51.5%
19,N#C/C(=C\c1ccc(Cl)c([N+](=O)[O-])c1)c1ccccn1,active: -55.4%
20,CC(=NNC(=S)N1CCN(C2CCCCCC2)CC1)c1ccccn1,inconclusive: -43.8%
21,Cc1ccc(CN2C(=O)C(C)Oc3ccccc32)cc1 (configuration not stated),inconclusive: -38.1%
22,N#CCCN(C(=O)COC(=O)CCc1c[nH]c2ccccc12)c1ccccc1,inconclusive: -40.9%

# An excerpt from above in order of length of the SMILES, low to high:
row,Compound,"max response, negative = inhibition"
6,Cc1ccccc1-c1nnc(SCc2ccccc2)o1,inactive: -6%
17,C=CCn1c(-c2cccc(Cl)c2)n[nH]c1=S,active: -56.8%
21,Cc1csc(SCC(=O)N(C)CC(=O)Nc2ccccc2Cl)n1,inactive: -6.13%
13,CCC(c1nnnn1C(C)(C)CC)N1CCN(c2ccccc2F)CC1 (configuration not stated),inactive: -0.599%

# Later entries

row,Compound,"max response, negative = inhibition"
1,Cc1ccc2oc(C(=O)NCC(c3ccco3)N(C)C)c(C)c2c1 (configuration not stated),inconclusive: -36.4%
2,CSc1ccc(CN2CCC(C)(Oc3ccc(F)cc3)C2)cc1 (configuration not stated),active: -112%
3,Cc1c(C(=O)NCc2ccc([N+](=O)[O-])cc2)sc(=O)n1Cc1ccc(-c2ccccc2)cc1,inconclusive: -31%
4,Cc1ccc(O)c(CN(C)Cc2cc(C)ccc2O)c1,inconclusive: -39%
5,CC1(c2ccccc2)CC(c2ccccc2)=Nc2nonc2N1 (configuration not stated),inconclusive: -37.8%
6,CC1=C(C(=O)N2CCOCC2)CC(CC(=O)NCc2cccs2)C(=O)N1CCC1=CCCCC1 (configuration not stated),inconclusive: -47.1%
7,CC(C)c1ccc2[nH]c(O)c(N=NC(=S)NCCc3ccccc3)c2c1,inactive: -11.1%
8,Cc1[nH]c(-c2ccc(F)cc2)cc1C(=O)N1CCN(c2ccccc2F)CC1,inconclusive: -46.2%
9,Cc1ccc(Cc2cnc(N3C(=N)SC(c4ccccc4)C3=O)s2)cc1 (configuration not stated),inactive: -10.6%
10,Cc1cc(C)c2c(=O)n3c(nc2c1)C(Cc1ccc(O)cc1)NC(=O)c1cc2ccccc2cc1-3 (configuration not stated),inconclusive: -35.2%
11,COc1ccc(C=C2SC(=S)NC2=O)c(OC)c1OC,inconclusive: -42.5%
12,FC(F)(F)c1ccnc(N2CCN(Cc3cnc(-c4ccccc4)[nH]3)CC2)c1,active: -77.5%
13,COCCN1Cc2cccc(C(=O)N3CCN(c4cc(C)ccc4C)CC3)c2C1=O,inactive: 3.02%
14,COc1ccc(S(=O)(=O)N(CCCN2CCOCC2)Cc2cccc3ccccc23)cc1,active: -85.5%
15,Cc1ccc(S(=O)(=O)n2nc(C)c(Br)c2C)c(C)c1C,inconclusive: -49.1%
16,O=C(NN=C1CCN(Cc2ccccc2)CC1)c1ccccc1O,inactive: -2.29%
17,CCCCn1nnnc1C(c1ccccc1)N1CCN(Cc2c(F)cccc2Cl)CC1 (configuration not stated),inconclusive: -36.3%
18,Cc1ccc(CN2C(=O)C(=O)c3cc(C)ccc32)cc1,active: -54.2%
19,C#Cc1ccccc1OCCCN1CCC(C(O)(c2ccccc2)c2ccccc2)CC1,inconclusive: -48.4%
20,N#C/C(=C\c1ccccc1[N+](=O)[O-])c1nc(C2CC2)cs1,inconclusive: -45.8%
21,O=C(CCNC(=O)Cn1ccc2ccccc2c1=O)NCCCN1CCN(c2ccc(F)cc2)CC1,inconclusive: -48.5%
22,Cc1ccc(OCCCCN2CCc3ccccc3C2)c(C)c1,active: -106%

row,Compound,"max response, negative = inhibition"
1,COc1ccc2c(COC(=O)c3ccc(C)c(S(=O)(=O)N4CCOCC4)c3)cc(=O)oc2c1,inactive: 41.9%
2,Cn1c(CCN2CCCC2)nc2cc(NS(=O)(=O)c3ccc(Cl)cc3)ccc21,inconclusive: -43.1%
3,O=C(OCC(=O)N1CCN(c2ccccc2)CC1)c1cc(Cl)ccc1[N+](=O)[O-],inconclusive: -36.8%
4,CCc1c(C)nc2ncnn2c1N1CCCC(C(=O)NCCc2ccccc2)C1 (configuration not stated),inactive: 25.7%
5,O=C(Nc1nc2ccccc2n1CCN1CCCCC1)C1CCCCC1,active: -62.1%
6,COCCNC(=O)Cn1cnc([N+](=O)[O-])n1,active: -70.9%
7,CC(=O)C1=C(C)OC(N)=C(C#N)C1c1cccc([N+](=O)[O-])c1 (configuration not stated),inactive: -5.05%
8,Cc1cccc(CN2C(=O)NC(c3ccccc3)(c3ccccc3)C2=O)c1,inconclusive: -41.2%
9,CCOP(=O)(c1ccccc1)c1nc(-c2ccccc2Cl)oc1N1CCCCC1 (configuration not stated),active: -72.8%
10,CCCC1CCc2c(sc(NC(=O)c3cccs3)c2C(N)=O)C1 (configuration not stated),active: -93.8%
11,CCOc1ccc(Cl)cc1-c1cc(C(=O)NCc2cccs2)[nH]n1,inconclusive: -37.7%
12,c1ccc(OCCCN2CCCC2)cc1,inconclusive: -42.9%
13,CCN(CC)C(=O)Cn1c(=O)n(CCCCCC(=O)Nc2ccccc2)c(=O)c2sccc21,inactive: -4.05%
14,CCC(=O)Nc1sc2c(c1C(N)=O)CCN(C(C)=O)C2,inconclusive: -31.3%
15,FC(F)(F)c1cnc(N2CCN(C(=S)NCc3ccccc3)CC2)c(Cl)c1,inconclusive: -39%
16,CCc1[nH]nc2c1C1(CCOC1C)C(C#N)=C(N)O2 (configuration not stated),active: -57%
17,CN(CCOC(=O)c1ccccc1)Cc1ccccc1,inconclusive: -42.1%
18,CCN1CCCC1CNC(=O)C(NC(=O)C1CCC(C)CC1)C(C)C (configuration not stated),inconclusive: -31.3%
19,COc1ccc(-n2nc(C(=O)NCC(=O)N3CCCC(C)C3)c3ccccc3c2=O)cc1 (configuration not stated),inactive: 2.13%
20,CCN(CC)C(=O)c1nc[nH]c1C(=O)O[C@@H](C)c1ccccc1,inactive: -12.3%
21,CCOC(=O)C1=C(NC(=S)NC(=O)c2ccccc2)c2ccccc2CC1(C)CC (configuration not stated),inactive: 2.48%
